The values below come from article PMC3944740.

The chains behind the UniProt entries cited, without tags or fusion partners. Where a name states a change or a piece, a line headed by the entry shows the natural chain unless it says otherwise.
UniProt Q00646: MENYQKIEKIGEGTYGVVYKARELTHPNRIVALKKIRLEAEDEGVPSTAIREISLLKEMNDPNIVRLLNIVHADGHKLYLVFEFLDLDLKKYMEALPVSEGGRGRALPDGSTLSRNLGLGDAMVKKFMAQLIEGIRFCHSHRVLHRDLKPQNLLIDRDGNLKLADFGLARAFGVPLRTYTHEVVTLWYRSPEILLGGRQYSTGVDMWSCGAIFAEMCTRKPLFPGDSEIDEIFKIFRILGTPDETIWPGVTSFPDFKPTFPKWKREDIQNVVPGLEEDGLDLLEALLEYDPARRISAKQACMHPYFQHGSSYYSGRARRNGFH
UniProt Q5B6N5: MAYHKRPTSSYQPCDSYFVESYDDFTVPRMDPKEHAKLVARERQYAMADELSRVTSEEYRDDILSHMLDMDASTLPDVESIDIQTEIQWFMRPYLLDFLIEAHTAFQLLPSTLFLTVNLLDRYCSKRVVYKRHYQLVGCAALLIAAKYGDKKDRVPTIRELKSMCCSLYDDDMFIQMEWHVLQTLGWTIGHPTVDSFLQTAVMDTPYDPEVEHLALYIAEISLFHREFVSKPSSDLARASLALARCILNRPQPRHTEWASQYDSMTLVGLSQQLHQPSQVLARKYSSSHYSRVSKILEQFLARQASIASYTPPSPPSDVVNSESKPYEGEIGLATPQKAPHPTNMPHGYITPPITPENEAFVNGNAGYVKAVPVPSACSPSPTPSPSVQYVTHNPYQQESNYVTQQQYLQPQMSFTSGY

These are yes or no findings as the source states them, for the method shown. Binding seen in cells or lysates may run through a third protein. Here binding means that the protein was enriched with, or labelled near, the bait; the list need not be complete. For part of these data: No binding means not detected with the bait.

Experiment in all cases: affinity purification with mass spectrometry; endogenously DLAP tagged bait captured on S-protein agarose beads from lysates of lyophilized mycelia (conidiating static cultures, 28-32 hr), 15 min at 4° with protease inhibitors, extensive washing, eluted with SDS-PAGE sample buffer, single gel slice analysed by LC-MS/MS; compared with 9 other kinase purifications and a DLAP control

For assay [1], the target named is T1, SepH-DLAP (Aspergillus nidulans) (UniProt Q5B4Z3).
T1 sequence: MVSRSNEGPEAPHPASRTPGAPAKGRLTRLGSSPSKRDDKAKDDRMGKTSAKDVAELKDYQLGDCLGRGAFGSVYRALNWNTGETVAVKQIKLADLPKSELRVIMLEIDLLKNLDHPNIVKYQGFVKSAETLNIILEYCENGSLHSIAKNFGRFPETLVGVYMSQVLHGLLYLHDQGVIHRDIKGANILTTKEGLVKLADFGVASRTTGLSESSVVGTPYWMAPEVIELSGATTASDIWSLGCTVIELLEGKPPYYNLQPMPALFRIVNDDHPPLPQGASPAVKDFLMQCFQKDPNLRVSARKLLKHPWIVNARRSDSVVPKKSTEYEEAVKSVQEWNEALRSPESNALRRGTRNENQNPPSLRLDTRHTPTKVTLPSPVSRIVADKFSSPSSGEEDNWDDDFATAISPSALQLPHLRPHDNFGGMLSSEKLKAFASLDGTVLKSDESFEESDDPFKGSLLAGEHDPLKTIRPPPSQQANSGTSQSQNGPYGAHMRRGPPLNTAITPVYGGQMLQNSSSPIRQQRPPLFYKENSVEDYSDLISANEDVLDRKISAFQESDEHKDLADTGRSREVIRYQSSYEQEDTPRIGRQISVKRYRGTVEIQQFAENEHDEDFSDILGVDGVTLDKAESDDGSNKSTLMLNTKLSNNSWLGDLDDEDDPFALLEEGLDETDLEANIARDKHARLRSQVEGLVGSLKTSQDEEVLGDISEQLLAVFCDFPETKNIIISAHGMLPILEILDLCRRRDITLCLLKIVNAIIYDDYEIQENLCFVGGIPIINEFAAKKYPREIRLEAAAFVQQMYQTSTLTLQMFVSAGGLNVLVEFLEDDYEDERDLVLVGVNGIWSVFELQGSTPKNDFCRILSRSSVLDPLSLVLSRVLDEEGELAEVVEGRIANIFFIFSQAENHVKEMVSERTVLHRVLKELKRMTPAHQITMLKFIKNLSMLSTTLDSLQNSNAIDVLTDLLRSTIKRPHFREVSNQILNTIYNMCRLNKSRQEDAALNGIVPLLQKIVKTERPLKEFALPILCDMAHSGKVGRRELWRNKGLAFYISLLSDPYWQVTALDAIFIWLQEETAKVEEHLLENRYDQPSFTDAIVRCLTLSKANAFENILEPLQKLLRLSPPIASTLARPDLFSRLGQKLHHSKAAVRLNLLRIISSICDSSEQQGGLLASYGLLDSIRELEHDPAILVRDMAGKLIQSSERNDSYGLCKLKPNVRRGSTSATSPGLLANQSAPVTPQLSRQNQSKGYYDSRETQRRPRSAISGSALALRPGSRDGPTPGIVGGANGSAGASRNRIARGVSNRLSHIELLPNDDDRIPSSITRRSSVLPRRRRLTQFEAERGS

Assay [2] has as its target NimX^Cdk1-DLAP (Aspergillus nidulans) (UniProt Q00646).
For assay [3], the target named is T2, CmkA-DLAP (Aspergillus nidulans) (UniProt Q00771).
T2 sequence: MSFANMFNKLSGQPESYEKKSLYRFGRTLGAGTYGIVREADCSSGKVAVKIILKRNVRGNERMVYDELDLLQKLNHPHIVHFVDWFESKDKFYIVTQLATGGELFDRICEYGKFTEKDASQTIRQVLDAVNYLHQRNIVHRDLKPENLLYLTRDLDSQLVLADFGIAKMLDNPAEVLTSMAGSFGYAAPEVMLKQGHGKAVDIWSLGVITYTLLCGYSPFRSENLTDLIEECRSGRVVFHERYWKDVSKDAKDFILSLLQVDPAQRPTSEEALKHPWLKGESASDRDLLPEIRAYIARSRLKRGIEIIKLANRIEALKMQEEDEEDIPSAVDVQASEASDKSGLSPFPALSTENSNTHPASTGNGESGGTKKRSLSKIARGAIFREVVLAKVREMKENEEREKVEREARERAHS

Take PucA (AN3795) (from UniProt Q5B6N5): the binding entry in assay [1] is “no binding”; in assay [2], “binds”; in assay [3], “no binding”.
“MobB (AN1370) (Aspergillus nidulans (endogenous))”: the binding entry in assay [1] and in assay [3] was “no binding” in each case.

B1: NimE^(Cyclin B) (AN3648) (protein, UniProt P30284 1-478)
chain: MNENDENGPSTRLTRAKAAALTTDAPAANGALKKPLQTKKAATGANGTQRKRAALGDVSNVGKADNGETKDAKKATSKTGLTSKATMQSGGVQKLSRSNLSRTAVGAKDNNVKKPATEAKRPGSGSGMGSAMKRTSSQKSLQEKTIQQEEPPRKKVDIEKVVEKQAEAVSVKGDVKAGAQTEELEKPQDFVADLDTEDLDDPLMAAEYVVEIFDYLRELEMETLPNPDYIDHQPDLEWKMRGILVDWLIEVHTRFRLLPETLFLAVNIIDRFLSAEVVALDRLQLVGVAAMFIASKYEEVLSPHVANFSHVADETFSDKEILDAERHILATLEYNMSYPNPMNFLRRISKADNYDIQTRTLGKYLMEISLLDHRFLGYPQSQIGAAAMYLARLILDRGPWDATLAHYAGYTEEEIDEVFRLMVDYLHRPVCHEAFFKKYASKKFLKASIMTRQWAKKYHHLYIDSALTEPYNSIKDNE
As for B1, the binding result in assay [2] was “binds”.
